From patent publication US6080837 (dated 2000)
[ ]: non-standard residue; d: D form. The star is where a group is joined. His(Trt) = N[C@@H](Cc1cn(C(c2ccccc2)(c2ccccc2)c2ccccc2)cn1)C(=O)O; Pmc = Cc1c(C)c(S(=O)(=O)*)c(C)c2c1OC(C)(C)CC2; Fmoc = O=C(OCC1c2ccccc2-c2ccccc21)*; Nle = CCCC[C@H](N)C(=O)O; Boc = CC(C)(C)OC(=O)*; OtBu = CC(C)(C)O*; tBu = CC(C)(C)*

Experiment: general procedure: hybrid (solid and solution phase) peptide synthesis; Sasrin-resin (2-methoxy-4-alkoxybenzyl alcohol copolystyrene 1% divinylbenzene); XAL-BHA for Fragment I; HBTU/HOBt/DIPEA; BOP/HOBt/DIPEA
[1] = coupling step, analytical HPLC (210 nm), capillary electrophoresis for final product

Substance	crude HPLC purity (whole synthesis, 210 nm)	step yield (coupling step)	crude HPLC purity [1]	other results
Ac-[His(Trt)]S(tBu)D(OtBu)AVFT(tBu)E(OtBu)-OH	95%	–	–	–
Fmoc-AK(Boc)KY(tBu)LNDLK(Boc)K(Boc)GGT(tBu)-NH2	–	100%	about70%	–
Fmoc-LK(Boc)K(Boc)GGT(tBu)-NH2	94.5%	–	–	–
Fmoc-NY(tBu)T(tBu)K(Boc)LR(Pmc)K(Boc)Q[Nle]A-OH	91%	–	–	–
Fmoc-NY(tBu)T(tBu)K(Boc)LR(Pmc)K(Boc)Q[Nle]AAK(Boc)KY(tBu)LNDLK(Boc)K(Boc)GGT(tBu)-NH2	–	about 79%	about 69%	–
cyclo(Lys^21 --Asp^25)-Fmoc-Ala^19 --Lys(Boc)^20 --Lys^21 --Tyr(tBu)^22 --Leu^23 --Asn^24 --Asp^25 k--OH	–	–	–	step yield (late stage modification step): 91.1%; final HPLC purity (whole synthesis, analytical HPLC (210 nm), capillary electrophoresis for final product): >97%; isolated yield (whole synthesis, overall, on starting resin): 33.7%
